Consider four substances from publication PMC7176845.

By UniProt entry, the sequences of proteins in these tests, tags left out. Where a name states a change or a piece, a line headed by the entry shows the natural chain unless it says otherwise.
UniProt P09874: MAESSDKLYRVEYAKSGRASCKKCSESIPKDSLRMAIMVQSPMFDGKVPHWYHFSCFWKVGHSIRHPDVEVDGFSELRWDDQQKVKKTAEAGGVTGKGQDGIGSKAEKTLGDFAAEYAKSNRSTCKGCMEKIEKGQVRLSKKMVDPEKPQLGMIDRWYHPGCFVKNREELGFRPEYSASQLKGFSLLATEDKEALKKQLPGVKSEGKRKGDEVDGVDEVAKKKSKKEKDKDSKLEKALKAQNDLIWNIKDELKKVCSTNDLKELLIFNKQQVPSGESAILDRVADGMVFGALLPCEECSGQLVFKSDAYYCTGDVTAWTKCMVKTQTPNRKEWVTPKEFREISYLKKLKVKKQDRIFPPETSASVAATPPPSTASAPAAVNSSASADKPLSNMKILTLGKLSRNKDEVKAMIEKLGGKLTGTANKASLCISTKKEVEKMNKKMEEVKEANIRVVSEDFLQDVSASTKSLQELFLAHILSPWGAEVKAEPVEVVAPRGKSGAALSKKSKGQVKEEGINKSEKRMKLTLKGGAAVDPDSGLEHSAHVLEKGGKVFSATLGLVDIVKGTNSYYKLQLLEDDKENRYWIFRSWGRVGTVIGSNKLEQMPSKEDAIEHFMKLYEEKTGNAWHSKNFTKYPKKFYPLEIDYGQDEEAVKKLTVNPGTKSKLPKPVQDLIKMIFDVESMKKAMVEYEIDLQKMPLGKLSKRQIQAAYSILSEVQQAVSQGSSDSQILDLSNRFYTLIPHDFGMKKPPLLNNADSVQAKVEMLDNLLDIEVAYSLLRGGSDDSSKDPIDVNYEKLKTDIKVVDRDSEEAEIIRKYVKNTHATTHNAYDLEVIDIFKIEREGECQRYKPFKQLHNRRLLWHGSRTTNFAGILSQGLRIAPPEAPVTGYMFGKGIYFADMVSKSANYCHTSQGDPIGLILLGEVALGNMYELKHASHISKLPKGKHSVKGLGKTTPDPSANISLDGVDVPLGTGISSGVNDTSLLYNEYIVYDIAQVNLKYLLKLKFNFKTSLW
UniProt Q9HAU4: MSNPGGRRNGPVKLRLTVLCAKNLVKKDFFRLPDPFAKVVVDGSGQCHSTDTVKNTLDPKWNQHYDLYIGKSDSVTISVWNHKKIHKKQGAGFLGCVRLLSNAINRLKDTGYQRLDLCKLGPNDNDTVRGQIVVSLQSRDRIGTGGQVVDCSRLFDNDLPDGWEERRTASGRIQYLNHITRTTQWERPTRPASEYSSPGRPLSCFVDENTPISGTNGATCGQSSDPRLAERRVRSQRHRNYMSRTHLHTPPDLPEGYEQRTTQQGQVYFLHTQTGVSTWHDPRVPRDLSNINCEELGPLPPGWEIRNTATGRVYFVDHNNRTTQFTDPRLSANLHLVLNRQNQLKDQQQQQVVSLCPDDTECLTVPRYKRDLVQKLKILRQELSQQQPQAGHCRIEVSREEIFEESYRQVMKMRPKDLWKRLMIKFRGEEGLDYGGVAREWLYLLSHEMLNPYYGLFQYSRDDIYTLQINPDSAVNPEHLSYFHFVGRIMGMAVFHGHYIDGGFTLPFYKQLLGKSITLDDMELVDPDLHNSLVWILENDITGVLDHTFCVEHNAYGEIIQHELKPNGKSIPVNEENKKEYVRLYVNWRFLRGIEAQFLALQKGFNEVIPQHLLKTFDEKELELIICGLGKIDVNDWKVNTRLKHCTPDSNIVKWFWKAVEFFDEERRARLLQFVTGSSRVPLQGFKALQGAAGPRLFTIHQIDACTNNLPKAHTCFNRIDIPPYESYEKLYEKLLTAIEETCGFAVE

No constants are given. Whether binding was seen depends on the method and setting. Binding seen in cells or lysates may run through a third protein. Some entries that bind do so weakly or less than the wild type.

Assay [1] addresses poly(ADP‐ribose) polymerase‐1 (PARP1) (human (endogenous in HUVEC and 293T)) (UniProt P09874). Put plainly: co-IP; endogenous proteins; anti-Smurf2 or anti-PARP1 antibody or control IgG with Protein A/G magnetic beads, 4°C 12 h, lysis buffer with 1% NP-40, 137 mmol/L NaCl, pH 7.8; blot with anti-PARP1 or anti-Smurf2; HUVEC with or without H2O2 500 μmol/L 12 h (interaction enhanced by H2O2).

Assay [2] has as its target Smurf2 (human (endogenous in HUVEC and 293T)) (UniProt Q9HAU4). The assay is described as above.
For assay [3], the target named is Flag‐Smurf2 (UniProt Q9HAU4). Put plainly: co-IP; 293T cells co-transfected with Flag-Smurf2 (or C716G) and Myc-PARP1 for 48 h; anti-Flag IP and anti-Myc blot, or anti-Myc IP and anti-Flag blot (with MG132 25 μmol/L or DMSO 8 h; interaction enhanced by MG132).
In assay [4] the target is Flag‐Smurf2 (C716G) (UniProt Q9HAU4). The assay is described as above.
The target in assay [5] is Myc‐PARP1 (UniProt P09874). Described as above.

As for Smurf2 (from UniProt Q9HAU4 1-748), in assay [1], the binding result is given as “binds”.
On to “poly(ADP‐ribose) polymerase‐1 (PARP1) (from UniProt P09874 1-1014)”, for which the binding result in assay [2] is “binds”.
In the case of Myc‐PARP1 (from UniProt P09874 1-1014), the binding result in assay [3] and in assay [4] was “binds” in each case.
With Flag‐Smurf2 (from UniProt Q9HAU4 1-748), the binding entry in assay [5] was “binds”.
